# Screening data, single-dose tests

Each number is a percent effect as filed.
How 0% and 100% were set is not recorded. Most values in the screen are low, and negative values occur.
This is an unselected part of the compounds tested.
Two or more numbers in one place are separate tests of the same structure; such repeats can differ widely.

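Whole-cell growth test on Mycobacterium tuberculosis, read after 3 days in glucose-containing 7H9 medium; the read-out is not stated. Concentration: 50 µM. Higher reads as more growth inhibition (inferred: compounds with an IC50 in retests scored well above the rest). About 69,000 compounds were tested under these conditions; 1.1% (about 760) showed 50% or more at least once.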

{"compound": "Cc1nc(Cn2cncc(Br)c2=O)no1", "Percent Effect": 20.65}
{"compound": "Cc1cccc(C(=O)N2CCC[C@]3(C[C@@H](OCC4CC4)CO3)C2)n1.O=C(O)C(F)(F)F", "Percent Effect": -22.55}
{"compound": "O=C(c1nn(-c2ccccc2F)cc1O)N1CCC2(CC1)OCCO2", "Percent Effect": "45.77 and 10.03"}
{"compound": "Cc1cnc(C(=O)N2CCCCC2c2nc(C)cs2)cn1", "stereo": "centres unmarked", "Percent Effect": 13.02}
{"compound": "Cc1nc(C)c(CCNC(=O)NC2CC(=O)N(C(C)(C)C)C2)s1", "stereo": "centres unmarked", "Percent Effect": 19.8}
{"compound": "CCS(=O)(=O)N1CCC(NC(=O)c2cc(C(C)C)ccc2O)CC1", "Percent Effect": 34.44}
{"compound": "O=C(c1nc(COc2ccc3c(c2)OCO3)no1)N1CCCC1", "Percent Effect": 38.04}
{"compound": "Cc1ncc2c(n1)CCCC2NC(=O)c1cnn(Cc2ccccc2)c1", "stereo": "centres unmarked", "Percent Effect": 16.75}
{"compound": "Cc1nc(CN2CCC3(CCN(c4ncc(F)cn4)C3)C2=O)cs1.O=C(O)C(F)(F)F", "stereo": "centres unmarked", "Percent Effect": -39.47}
{"compound": "Cc1nn(C)c(C)c1C1COCCN1C(=O)CSC(C)(C)C", "stereo": "centres unmarked", "Percent Effect": "-2.251 and 0.8877"}
{"compound": "Cc1cncc(C2CCN(Cc3ccsc3)CC2)n1", "Percent Effect": 6.212}
{"compound": "COc1ccc(CC(=O)N2CCCC2c2nc(C)c(C)c(O)n2)cc1", "stereo": "centres unmarked", "Percent Effect": -6.755}
{"compound": "O=C(O)C(F)(F)F.[H][C@@]12CCN(c3nnc(C)s3)[C@]1([H])CC[C@@H](c1nc(C)no1)O2", "Percent Effect": -3.746}
{"compound": "CC(C)N(C)Cc1cn2c(n1)CN(C(=O)c1ccc[nH]1)CC2", "Percent Effect": -36.8}
{"compound": "COCCOc1ccc(NC(=O)N2CCOC(C(N)=O)C2)cc1F", "stereo": "centres unmarked", "Percent Effect": 13.39}
{"compound": "CCN1CCOC(CNCc2ccc(OCc3ccccn3)cc2)C1", "stereo": "centres unmarked", "Percent Effect": -0.9065}
{"compound": "CN(C)CCN1CCC2(CCCN(Cc3cccn3C)C2)C1=O.O=C(O)C(F)(F)F.O=C(O)C(F)(F)F", "stereo": "centres unmarked", "Percent Effect": 11.76}
{"compound": "Cn1ncc2c(NC3CCC3)nc(-c3ccncc3)nc21", "Percent Effect": -5.24}
{"compound": "CNS(=O)(=O)CCCNC(C)(C)c1nc(C)cs1", "Percent Effect": -38.45}
{"compound": "CN(C)c1ccc(C(=O)NCC2(c3ccccc3)CCOCC2)cc1", "Percent Effect": 3.996}
{"compound": "CC(=O)NCC1CCC2(CCN(c3ncc(C(C)=O)c(C)n3)CC2)O1", "stereo": "centres unmarked", "Percent Effect": -21.48}
{"compound": "O=C(c1cnccn1)N1CCN(Cc2csc(-c3ccccc3)n2)CC1", "Percent Effect": -9.008}
{"compound": "COc1ccc(-n2nc(C)c(C(C)=O)c2C)cc1C(N)=O", "Percent Effect": -25.08}
{"compound": "CCn1cc(NC(=O)NCC(C)N(C)C2CC2)cn1", "stereo": "centres unmarked", "Percent Effect": -8.879}
{"compound": "CCOc1ccc2[nH]c(=O)c(CN3CCN(S(N)(=O)=O)CC3)cc2c1", "Percent Effect": -20.09}
{"compound": "COCCN1CCn2cc(CNC(=O)C3CCC3)nc2C1", "Percent Effect": "-3.358 and -42.61"}
{"compound": "CC(=O)N1CCCCC1c1cc(C(=O)N2CCOCC2)[nH]n1", "stereo": "centres unmarked", "Percent Effect": -22.19}
{"compound": "CCc1cc(N(C)Cc2cc[nH]n2)n2nc(C)c(C)c2n1", "Percent Effect": 37.8}
{"compound": "CC(C1CCN(Cc2cnn(C)c2C2CC2)CC1)N1CCCC1", "stereo": "centres unmarked", "Percent Effect": -1.586}
{"compound": "COc1cccc(-c2nc(CNC(C)Cn3cccn3)cs2)c1", "stereo": "centres unmarked", "Percent Effect": -41.98}
{"compound": "Cc1cccc(-n2c(C)cc(C(=O)NS(C)(=O)=O)c2C)c1", "Percent Effect": 16.49}
{"compound": "CCOc1ccc(N(C)S(=O)(=O)c2c[nH]c(C(C)C)n2)cc1", "Percent Effect": "-6.052 and -41.5"}
{"compound": "Cc1nc(C2CCCCN2C(=O)c2ccccc2)ncc1C(=O)N(C)C", "stereo": "centres unmarked", "Percent Effect": 4.747}
{"compound": "CN(C)C(=O)c1cnc2n1CCN(Cc1ccsc1)C2.O=C(O)C(F)(F)F", "Percent Effect": -20.35}
{"compound": "CCn1ccnc1CN1CCN(CCC(=O)NC2CCCCC2)CC1", "Percent Effect": 2.437}
{"compound": "O=C(c1ccccn1)N1CCCN(Cc2nnc(C3CC3)o2)CC1", "Percent Effect": 0.1037}
{"compound": "CCOc1cccc(CN2CCCn3nc(CNS(C)(=O)=O)cc3C2)c1", "Percent Effect": 1.168}
{"compound": "NC(=O)c1ccc(-n2ccnc2C2CC2)cc1N1CCCC1", "Percent Effect": -21.8}

3 of the entries, repeated:

Cc1nc(Cn2cncc(Br)c2=O)no1 read 20.65%.
CCOc1cccc(CN2CCCn3nc(CNS(C)(=O)=O)cc3C2)c1 read 1.168%.
O=C(c1nc(COc2ccc3c(c2)OCO3)no1)N1CCCC1 read 38.04%.

The values are deposited in ChEMBL (CHEMBL3988442, “University of Dundee, Small-Polar-MMV Screening Library” (2021)).